The campaign covered roughly 31,000 sequences. About 1,400 (4.5%) were called active.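 How the source made its calls: active means median seed-adjusted z-score above 1 or below -1; inactive means the rest.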 The list shows a part of the results.
Assay: Novel Modifiers of Survival Motor Neuron (SMN) Protein: Gene Identification via Genome-wide siRNA Screen;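 further: luminescence tracks full-length SMN protein made from the SMN2 reporter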
Settings: HEK293T SMN2-luciferase reporter, siRNA knockdown, 72 h; actives lie on both sides
Procedure, shortened: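 Steps: spot 1 pmol siRNA, add Lipofectamine RNAiMax in serum-free DMEM, seed HEK293T SMN2–luciferase reporter cells; incubate 72 h at 37 °C; add ONE-Glo; normalize luminescence to control siRNA, log10, MAD. Candidates: |MAD| > 1.0.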

Row | Sequence | median seed-adjusted z-score
1 | GGAAAAAGGGCAUCGAGAATT against MDH2 | inactive: 0.185
2 | CAUAUAUGAUUGCAUCAAATT against ACTL6A | active: 1.11
3 | GACCAUACCCAGUACCGAUTT against MYH15 | inactive: -0.939
4 | CGCAGUGCUUAAUCGAAAATT against CARD11 | inactive: 0.22
5 | GGCUGGAUCUAUGACAACATT against SLC22A6 | inactive: 0.135
6 | GCAGAUAGGCUCUUACUUUTT against ITGA11 | inactive: 0.496
7 | UGCUCAUCACCAACUCUAATT against GALK1 | inactive: 0.315
8 | GUGGGUAACUGGAACAAAATT against MFGE8 | inactive: 0.0367
9 | CCACAGCAUGAACCGCUUATT against CPA5 | inactive: 0.141
10 | AGAUGAUCGACGAAGCUGATT against CETN1 | inactive: 0.236
11 | CUCCUAUAAGAAAUCAAUATT against FLVCR1 | inactive: 0.197
12 | GGACGAUAGGGAUAGGGAUTT against EIF3A | inactive: -0.689
13 | CAGUCCCUAUUUCAAAAUATT against PDE6G | inactive: 0.0109
14 | GAAUCUAAGCAUAUACUCUTT against MYO3B | inactive: 0.51
15 | CCGUAACCGCCGCAAGAUATT against RAVER1 | inactive: -0.0873
16 | GAAGGAAUAUUGUAAUACATT against LACE1 | inactive: 0.166
17 | GACAAAAAGUCCAACCCUATT against CYB5R3 | inactive: -0.901
18 | GGAUGUACUGCAGUACAGATT against EPHA3 | inactive: 0
19 | UCUUCGUGGUGAUCACUGUTT against SLC46A1 | inactive: -0.00763
20 | GCAAGUACCUGAGAACGGATT against APOB | inactive: -0.0862
21 | CACCCAAGCUGAUCAGAGATT against FAR2 | inactive: 0.0328
22 | CGAUUUGACGAUUACAACATT against FSTL4 | inactive: 0.429
23 | GAUUCCCUGCAUCAACUAATT against SQLE | active: -1.14

A stretch from further up, for reference:
Row | Sequence | median seed-adjusted z-score
9 | CCACAGCAUGAACCGCUUATT against CPA5 | inactive: 0.141
10 | AGAUGAUCGACGAAGCUGATT against CETN1 | inactive: 0.236

Remaining list, next part

Row | Sequence | median seed-adjusted z-score
24 | GUUCUUCACUUUUGAGGAUTT against DMRT1 | inactive: 0
25 | ACAAAACUCUCCAGAUUAATT against STYXL1 | inactive: -0.311
26 | GGCAUACUUGCAACUAAUATT against MX2 | inactive: -0.0346
27 | CACUCACCAUGAAGCGAAATT against CDKN2B | inactive: 0.0154
28 | GCAGACCACCUGAAUAUGATT against TRO | active: 2.04
29 | GUUAAAGUCCUUAACAAUATT against DNAJB6 | inactive: -0.251
30 | CGGAACAUCUGUUUCCCAATT against USP49 | inactive: 0.549
31 | CCCACUACCCAGACAUAUATT against PAX7 | inactive: -0.803
32 | GGUUCCCUGUUUACCCUCATT against FLRT1 | inactive: -0.00451
33 | CGAAUGCUCAAGCAACUCATT against CDKL1 | inactive: -0.28
34 | GGCUGGAUAUGUAGGCGAATT against CLPX | inactive: -0.0436
35 | GGUUGAUACCCACUCAAAATT against VIM | inactive: 0.431
36 | GAAAGACUACGAAUGCAAATT against ZNF331 | inactive: 0.415
37 | GGGAUUAUCCGGUUUGUCATT against FPR2 | inactive: -0.166
38 | UCUCUGAAGUUAUCUCGGATT against SDS | inactive: 0.128
39 | GAUCACCUCUCUUACUUCATT against NEDD4 | inactive: 0.454
40 | GCCUUCGAGUUCCUUGUUUTT against COX6B2 | inactive: -0.544
41 | ACCUUGGUGUUGGACCUCATT against RNF26 | inactive: 0.359
42 | CCAGAUAAAUCUAUAGCAATT against RCOR1 | active: -1.13
43 | CCAGUUCUCCGAAAUCCAATT against METTL7B | inactive: 0.223
44 | GCAGUUCCGGGAAAGAUCATT against SELE | inactive: 0.469
45 | GAGUUACAGCUGAUCAAAATT against VPS26A | active: -1.55
46 | CGUCUGGUGUAGUAAUGAUTT against ALAS2 | inactive: -0.142

Row | Sequence | median seed-adjusted z-score
47 | GAACUCCACCUAGACCACATT against BGN | inactive: 0.376
48 | CCGAGAAAUUACUCCGUUATT against MAGT1 | inactive: -0.0855
49 | CGAGAGUUACUUACAAGAATT against RAN | active: -3.09
50 | GAUGAUUCCUGGAAAAGUATT against GLA | inactive: -0.494
51 | GAUGAUUUUUGGAGACCUATT against TRPV5 | inactive: 0.0879
52 | AGACGAUCCCUUCUACUAUTT against FXYD4 | inactive: -0.0447
53 | GCAGGGCAUUUAUGGGACATT against KRT79 | inactive: 0.338
54 | AAGGUACACUGGUCCCAAATT against CDKN1C | inactive: -0.0497
55 | CAACCUGGGUCAGAUCACATT against SLC1A6 | inactive: 0.0455
56 | GCUCCUUCAUCGAGAAGUATT against RAP2B | inactive: -0.22
57 | CAGCAAAGUUAAUUCAACATT against SRPRB | inactive: 0.000693
58 | GGCUCAAAUUGAACGUGGATT against SMARCA1 | inactive: 0.6
59 | GGACAGCUGCACGCUCUUATT against TESK1 | inactive: 0.384
60 | UGCUCGUGCUCGUUCCAAATT against ING4 | inactive: -0.152
61 | CACAGUUGUUUAUGACUCATT against AKAP10 | inactive: 0.0689
62 | UGAAGAUUCUGGUGCAGCATT against ASB2 | inactive: -0.825
63 | GAGACGGAAUGUUAUCAGATT against IFIT3 | inactive: -0.437
64 | GCGGUCCAAUGAUACUAAUTT against KCNH1 | inactive: -0.0859
65 | GGAUCCUCCUGUAGCCUUUTT against CIC | inactive: 0.756
66 | GAAGUGUACCAGAUAUAUUTT against ASPA | inactive: -0.138
67 | GCUGCUAUGCCUGACCAUATT against STAMBPL1 | inactive: 0.13
68 | CGUGCAGGAUAAACUCAAATT against TNPO2 | inactive: 0.0785
69 | GCAUAUACUAUUUCGGCUATT against HEATR6 | inactive: 0

3 entries picked at random from those above:
Row | Sequence | median seed-adjusted z-score
48 | CCGAGAAAUUACUCCGUUATT against MAGT1 | inactive: -0.0855
65 | GGAUCCUCCUGUAGCCUUUTT against CIC | inactive: 0.756
47 | GAACUCCACCUAGACCACATT against BGN | inactive: 0.376
